Experimental findings from paper PMC8430637 are described below.

The chains behind the UniProt entries cited, without tags or fusion partners.
UniProt Q7Z6Z7: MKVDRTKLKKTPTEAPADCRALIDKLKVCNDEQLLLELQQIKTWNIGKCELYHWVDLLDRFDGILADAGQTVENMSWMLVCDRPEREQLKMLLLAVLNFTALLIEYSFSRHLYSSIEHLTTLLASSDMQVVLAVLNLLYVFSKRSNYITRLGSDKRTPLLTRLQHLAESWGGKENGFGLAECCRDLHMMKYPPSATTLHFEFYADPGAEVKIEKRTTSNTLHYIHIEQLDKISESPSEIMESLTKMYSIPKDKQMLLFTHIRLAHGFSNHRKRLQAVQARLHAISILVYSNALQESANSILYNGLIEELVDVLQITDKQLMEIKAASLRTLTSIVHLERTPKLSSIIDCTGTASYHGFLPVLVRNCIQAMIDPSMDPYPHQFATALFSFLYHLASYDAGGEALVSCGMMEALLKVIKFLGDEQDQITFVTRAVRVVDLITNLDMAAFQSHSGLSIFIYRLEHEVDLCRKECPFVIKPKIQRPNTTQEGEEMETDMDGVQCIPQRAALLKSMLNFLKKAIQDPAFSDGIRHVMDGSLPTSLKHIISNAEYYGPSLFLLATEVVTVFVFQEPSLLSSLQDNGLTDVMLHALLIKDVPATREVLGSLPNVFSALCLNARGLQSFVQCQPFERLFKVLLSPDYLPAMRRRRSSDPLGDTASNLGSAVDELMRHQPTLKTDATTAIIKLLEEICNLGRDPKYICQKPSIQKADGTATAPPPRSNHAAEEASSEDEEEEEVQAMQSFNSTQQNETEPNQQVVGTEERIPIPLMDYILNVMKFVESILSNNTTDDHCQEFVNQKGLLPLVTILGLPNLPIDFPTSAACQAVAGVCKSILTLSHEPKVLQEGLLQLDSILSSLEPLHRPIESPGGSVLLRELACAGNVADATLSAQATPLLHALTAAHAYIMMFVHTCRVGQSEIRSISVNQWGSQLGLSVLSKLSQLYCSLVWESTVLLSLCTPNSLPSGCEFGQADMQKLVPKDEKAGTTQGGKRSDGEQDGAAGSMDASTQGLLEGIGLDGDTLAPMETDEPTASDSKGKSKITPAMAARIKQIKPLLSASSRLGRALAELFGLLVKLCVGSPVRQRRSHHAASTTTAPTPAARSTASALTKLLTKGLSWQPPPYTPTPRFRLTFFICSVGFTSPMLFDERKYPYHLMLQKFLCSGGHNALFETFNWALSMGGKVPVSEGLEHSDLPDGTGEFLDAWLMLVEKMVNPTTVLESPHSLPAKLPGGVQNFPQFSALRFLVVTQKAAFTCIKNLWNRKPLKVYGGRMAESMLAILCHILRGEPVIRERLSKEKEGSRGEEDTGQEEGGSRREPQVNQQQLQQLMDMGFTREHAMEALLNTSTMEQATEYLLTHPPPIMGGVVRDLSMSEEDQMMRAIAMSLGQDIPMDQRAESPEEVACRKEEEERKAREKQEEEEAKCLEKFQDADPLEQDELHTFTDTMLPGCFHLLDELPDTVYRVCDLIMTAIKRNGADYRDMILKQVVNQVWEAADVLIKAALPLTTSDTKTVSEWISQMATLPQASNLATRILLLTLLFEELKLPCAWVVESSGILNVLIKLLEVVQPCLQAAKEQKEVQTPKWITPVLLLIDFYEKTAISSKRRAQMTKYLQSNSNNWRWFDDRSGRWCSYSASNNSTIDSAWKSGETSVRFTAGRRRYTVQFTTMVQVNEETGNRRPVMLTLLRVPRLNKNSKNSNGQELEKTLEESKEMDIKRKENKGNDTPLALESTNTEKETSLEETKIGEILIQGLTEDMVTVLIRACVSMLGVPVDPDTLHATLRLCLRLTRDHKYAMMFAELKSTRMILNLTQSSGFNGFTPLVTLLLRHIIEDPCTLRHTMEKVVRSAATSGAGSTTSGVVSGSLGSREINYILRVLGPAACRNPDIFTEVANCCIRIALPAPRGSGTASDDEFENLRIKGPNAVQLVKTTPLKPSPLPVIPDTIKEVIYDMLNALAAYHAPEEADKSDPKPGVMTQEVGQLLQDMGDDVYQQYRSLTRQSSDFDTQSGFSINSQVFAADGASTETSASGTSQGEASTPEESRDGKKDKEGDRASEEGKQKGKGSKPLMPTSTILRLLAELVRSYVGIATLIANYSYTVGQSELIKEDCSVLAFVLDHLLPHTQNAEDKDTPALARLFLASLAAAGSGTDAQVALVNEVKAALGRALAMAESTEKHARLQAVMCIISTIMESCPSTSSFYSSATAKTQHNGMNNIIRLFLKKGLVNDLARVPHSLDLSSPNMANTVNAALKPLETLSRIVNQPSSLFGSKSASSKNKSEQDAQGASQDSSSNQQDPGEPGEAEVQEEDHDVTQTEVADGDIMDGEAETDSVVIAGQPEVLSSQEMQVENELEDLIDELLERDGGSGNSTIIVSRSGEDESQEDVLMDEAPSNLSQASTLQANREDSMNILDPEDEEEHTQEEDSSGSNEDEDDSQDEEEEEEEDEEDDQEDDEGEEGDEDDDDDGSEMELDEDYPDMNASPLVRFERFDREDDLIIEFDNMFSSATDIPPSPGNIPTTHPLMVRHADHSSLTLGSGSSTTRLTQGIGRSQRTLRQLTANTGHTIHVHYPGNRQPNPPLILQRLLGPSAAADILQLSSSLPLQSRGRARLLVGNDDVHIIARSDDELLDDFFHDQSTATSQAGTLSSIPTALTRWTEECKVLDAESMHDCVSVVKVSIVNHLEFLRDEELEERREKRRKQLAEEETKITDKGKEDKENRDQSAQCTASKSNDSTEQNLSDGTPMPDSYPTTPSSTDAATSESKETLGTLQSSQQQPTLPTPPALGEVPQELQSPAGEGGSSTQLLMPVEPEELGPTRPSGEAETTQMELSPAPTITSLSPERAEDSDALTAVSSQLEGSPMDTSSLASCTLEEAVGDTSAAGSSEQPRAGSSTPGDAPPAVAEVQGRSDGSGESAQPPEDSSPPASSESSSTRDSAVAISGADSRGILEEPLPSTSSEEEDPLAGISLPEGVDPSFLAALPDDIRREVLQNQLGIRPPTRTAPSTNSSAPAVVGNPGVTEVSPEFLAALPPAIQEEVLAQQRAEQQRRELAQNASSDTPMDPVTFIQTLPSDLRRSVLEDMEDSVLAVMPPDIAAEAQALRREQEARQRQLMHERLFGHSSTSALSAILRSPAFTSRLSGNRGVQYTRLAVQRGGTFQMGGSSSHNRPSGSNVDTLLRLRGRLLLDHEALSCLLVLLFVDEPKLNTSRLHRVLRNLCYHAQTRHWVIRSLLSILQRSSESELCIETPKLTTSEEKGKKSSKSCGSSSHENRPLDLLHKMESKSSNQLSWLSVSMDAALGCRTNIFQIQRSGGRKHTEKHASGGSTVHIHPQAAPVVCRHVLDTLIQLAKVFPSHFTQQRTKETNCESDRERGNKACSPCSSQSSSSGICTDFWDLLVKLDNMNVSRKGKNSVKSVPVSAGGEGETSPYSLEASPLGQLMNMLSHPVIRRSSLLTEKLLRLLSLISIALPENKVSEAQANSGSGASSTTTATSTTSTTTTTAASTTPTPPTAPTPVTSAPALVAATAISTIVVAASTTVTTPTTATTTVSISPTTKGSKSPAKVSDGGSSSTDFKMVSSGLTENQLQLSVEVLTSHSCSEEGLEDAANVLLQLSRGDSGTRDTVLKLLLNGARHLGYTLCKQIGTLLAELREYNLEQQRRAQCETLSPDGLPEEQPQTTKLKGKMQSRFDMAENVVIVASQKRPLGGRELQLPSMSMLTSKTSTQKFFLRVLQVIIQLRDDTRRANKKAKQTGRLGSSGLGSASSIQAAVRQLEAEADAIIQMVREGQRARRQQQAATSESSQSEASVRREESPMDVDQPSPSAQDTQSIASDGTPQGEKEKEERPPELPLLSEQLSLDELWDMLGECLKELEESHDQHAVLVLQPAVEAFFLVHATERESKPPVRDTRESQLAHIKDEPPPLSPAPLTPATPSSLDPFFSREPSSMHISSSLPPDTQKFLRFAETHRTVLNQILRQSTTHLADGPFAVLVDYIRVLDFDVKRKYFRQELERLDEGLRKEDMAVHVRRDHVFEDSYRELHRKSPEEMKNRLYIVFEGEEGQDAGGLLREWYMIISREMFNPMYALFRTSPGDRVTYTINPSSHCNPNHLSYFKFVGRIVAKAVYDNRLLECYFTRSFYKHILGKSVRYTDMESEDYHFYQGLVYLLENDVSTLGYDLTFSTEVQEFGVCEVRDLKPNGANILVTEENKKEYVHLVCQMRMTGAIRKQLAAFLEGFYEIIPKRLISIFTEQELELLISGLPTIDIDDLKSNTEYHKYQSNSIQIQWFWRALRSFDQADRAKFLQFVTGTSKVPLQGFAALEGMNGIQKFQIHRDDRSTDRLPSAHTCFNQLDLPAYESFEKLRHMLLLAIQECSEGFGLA

These are yes or no findings as the source states them, for the method shown. Binding seen in cells or lysates may run through a third protein. Some results given as binding are weak or reduced against the parent protein; the word gives no strength. Where a sequence is shown, tags or fusion partners need not be part of it.

The assay has as its target HECT, UBA and WWE domain containing E3 ubiquitin protein ligase 1 (HUWE1), endogenous (human (endogenous in MIA PaCa-2)) (UniProt Q7Z6Z7). The assay is described as follows: co-IP; anti-HUWE1 immunoprecipitation from cell lysate (1% NP-40, 150 mM NaCl, 20 mM Tris-HCl, 2 mM EDTA), protein A agarose, 4 °C; blot with anti-ATG101; cells in basal condition or amino acid-deprived medium for 2 h.

B1: autophagy-related protein 101 (ATG101), endogenous (protein, UniProt Q9BSB4 1-218)
chain: MNCRSEVLEVSVEGRQVEEAMLAVLHTVLLHRSTGKFHYKKEGTYSIGTVGTQDVDCDFIDFTYVRVSSEELDRALRKVVGEFKDALRNSGGDGLGQMSLEFYQKKKSRWPFSDECIPWEVWTVKVHVVALATEQERQICREKVGEKLCEKIINIVEVMNRHEYLPKMPTQSEVDNVFDTGLRDVQPYLYKISFQITDALGTSVTTTMRRLIKDTLAL
B1: the binding result is “binds”.

B2: FLAG-ATG101 full length (protein, UniProt Q9BSB4 1-218)
chain: MNCRSEVLEVSVEGRQVEEAMLAVLHTVLLHRSTGKFHYKKEGTYSIGTVGTQDVDCDFIDFTYVRVSSEELDRALRKVVGEFKDALRNSGGDGLGQMSLEFYQKKKSRWPFSDECIPWEVWTVKVHVVALATEQERQICREKVGEKLCEKIINIVEVMNRHEYLPKMPTQSEVDNVFDTGLRDVQPYLYKISFQITDALGTSVTTTMRRLIKDTLAL
Regarding B2, the binding result is listed as “binds”.
